The results in this text go back to US20020160975A1, “Conserved XIAP-interaction motif in caspase-9 and Smac/DIABLO for mediating apoptosis” (Thomas Jefferson University, priority 2001, published 2002).

Sequences of proteins named here, by UniProt entry; tags and fusion partners are left off. A change or cut given only in a name is not applied to a line headed by its entry.
UniProt P98170: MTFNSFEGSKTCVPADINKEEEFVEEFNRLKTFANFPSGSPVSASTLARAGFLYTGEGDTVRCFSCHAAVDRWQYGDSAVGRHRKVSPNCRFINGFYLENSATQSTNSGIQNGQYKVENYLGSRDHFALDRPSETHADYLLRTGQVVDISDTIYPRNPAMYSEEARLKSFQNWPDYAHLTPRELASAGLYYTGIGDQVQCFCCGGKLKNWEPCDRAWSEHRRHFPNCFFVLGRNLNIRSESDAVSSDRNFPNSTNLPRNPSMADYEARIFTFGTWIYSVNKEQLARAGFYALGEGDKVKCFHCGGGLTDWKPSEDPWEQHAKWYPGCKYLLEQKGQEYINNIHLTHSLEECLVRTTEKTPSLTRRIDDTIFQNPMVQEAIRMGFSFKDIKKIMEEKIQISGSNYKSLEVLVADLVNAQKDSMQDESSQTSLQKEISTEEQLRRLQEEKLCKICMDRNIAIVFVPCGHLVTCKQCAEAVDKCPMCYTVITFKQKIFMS
UniProt P55211: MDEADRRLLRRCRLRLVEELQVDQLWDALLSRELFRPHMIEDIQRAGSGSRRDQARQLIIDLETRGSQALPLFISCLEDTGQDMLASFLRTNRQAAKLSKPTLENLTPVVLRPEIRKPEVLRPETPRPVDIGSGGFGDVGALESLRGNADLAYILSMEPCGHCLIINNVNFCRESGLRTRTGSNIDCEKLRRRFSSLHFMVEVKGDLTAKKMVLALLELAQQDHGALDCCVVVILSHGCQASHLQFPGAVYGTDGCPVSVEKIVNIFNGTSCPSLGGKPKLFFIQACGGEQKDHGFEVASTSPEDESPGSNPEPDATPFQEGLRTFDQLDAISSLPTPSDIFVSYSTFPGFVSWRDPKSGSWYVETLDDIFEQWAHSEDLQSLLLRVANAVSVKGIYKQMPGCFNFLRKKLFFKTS

No constants are given. Whether binding was seen depends on the method and setting. Binding seen in cells or lysates may run through a third protein. Some results given as binding are weak or reduced against the parent protein; the word gives no strength.

The target in the assay is X-linked inhibitor of apoptosis protein (XIAP), full length (UniProt P98170). Description: GST pull-down of 35S-labeled XIAP.

Take “Caspase-9-p12 C-terminal GST fusion protein (residues 316-416 of SEQ ID NO:1) (from UniProt P55211 316-416)”: the binding entry is on record as “binds”.
